Laboratory results taken from ChEMBL document CHEMBL4359831, “Chemoproteomics of an Indole-Based Quinone Epoxide Identifies Druggable Vulnerabilities in Vancomycin-Resistant Staphylococcus aureus” (J Med Chem, 2019).
≈ marks a conversion by molar mass, not a printed value.

System: Enterococcus faecalis
Test: Antibacterial activity against Enterococcus faecalis B3119 after 16 to 18 hrs by CLSI M07-A10 protocol based dilution method
Format: functional

CN[C@H](CC(C)C)C(=O)N[C@H]1C(=O)N[C@@H](CC(N)=O)C(=O)N[C@H]2C(=O)N[C@H]3C(=O)N[C@H](C(=O)N[C@H](C(=O)O)c4cc(O)cc(O)c4-c4cc3ccc4O)[C@H](O)c3ccc(c(Cl)c3)Oc3cc2cc(c3O[C@@H]2O[C@H](CO)[C@@H](O)[C@H](O)[C@H]2O[C@H]2C[C@](C)(N)[C@H](O)[C@H](C)O2)Oc2ccc(cc2Cl)[C@H]1O [VANCOMYCIN]
MIC: 0.5 µg/mL (≈ 0.345 µM)
